Test results taken from patent publication US9751851B2, “Molecules and compositions that inhibit gram negative bacteria and their uses” (THE TRUSTEES OF PRINCETON UNIVERSITY, priority 2013, dated 2017).

Test system: wild-type P. aeruginosa PA14
Test: microbe, parasite or virus in culture
Assay type: cell-based
Details: reduction of pyocyanin vs WT P. aeruginosa PA14: 0% = WT level, 100% = background medium
Procedure: Methods. The oxidized form of pyocyanin imparts a green color to P. aeruginosa cultures, making the production of pyocyanin convenient to monitor by UV/Vis absorbance. Overnight P. aeruginosa cultures were subcultured into 5 mL fresh medium at 1:1000 dilution. Synthetic compounds were assayed at 100 μM for end point assays and at concentrations ranging from 200 nM to 200 μM for titrations following 17 hr of aerobic growth with shaking at 37° C. Cells were separated from culture fluids via centrifugation at 13,000 rpm for 15 min. Culture fluids were passed through 0.22 μm syringe driven filters (Millipore). Cell-free culture fluids were analyzed for pyocyanin using wavelength scans on a Beckman Coulter DU-800 spectrophotometer from 200 nm to 800 nm 695 nm was chosen for graphical representation. Titration data were fit with a variable-slope sigmoidal dose-response curve using GraphPad Prism to determine the IC50 values.
The compounds of the first library were assayed in wild-type (WT) P. aeruginosa PA14. Pyocyanin was used as a read-out for quorum sensing activity based on its absorbance at 695 nm. The efficacy of the compounds at reducing pyocyanin levels was calculated with respect to WT levels of pyocyanin, where WT levels of pyocyanin would lead to a 0% efficacy, and an absorbance equal to the background medium would lead to a 100% efficacy. […]

O=C(COc1ccc(Br)cc1)Nc1ccnc(C(F)(F)F)c1 [S64, 4-amino-2-trifluoromethylpyridine-C6-4-bromophenoxyhybrid]
inhibition at 100 µM (Pseudomonas aeruginosa, PA14, 17 h, read-out: Efficacy (%), Table 4): 88% | Efficacy (%) (Table 4): 88 ± 4%
